Some entries repeat one wording, which the source may state once for all of them.
Experiment: Resistance of dye / hair colouring to washing, light, weathering

Resistance to washing and to light, resistant to washing and to light:
Cc1cc(N)c([N+](=O)[O-])c(C)c1N [2,6-dimethyl-3-nitroparaphenylenediamine]
CNc1c(C)cc(N)c([N+](=O)[O-])c1C [4-amino-2,6-dimethyl-3-nitro-N-methylaniline]
CCN(CC)CCNc1cc([N+](=O)[O-])c(N)c(C)c1C [4-amino-5,6-dimethyl-3-nitro-N-(β-diethylaminoethyl)aniline]
Cc1c(NCC(O)CO)cc([N+](=O)[O-])c(N)c1C (stereo not drawn) [4-amino-5,6-dimethyl-3-nitro-N-β,γ-dihydroxypropylaniline]
Cc1c(NCCN)cc([N+](=O)[O-])c(N)c1C [4-amino-5,6-dimethyl-3-nitro-N-β-aminoethylaniline]
Cc1c(NCCO)cc([N+](=O)[O-])c(N)c1C [4-amino-5,6-dimethyl-3-nitro-N-β-hydroxyethylaniline]
Cc1c(N)cc([N+](=O)[O-])c(N)c1C [5,6-dimethyl-3-nitroparaphenylenediamine]
